Some entries share one result that the patent states for a list of compounds. At least one compound was matched to its structure with a doubt left.
Tested on: five strains of A. baumannii (AB1, AB2, AB4, AB5, AB6)
Experiment: MIC summarised over the five clinical strains
Type: cell-based, Acinetobacter baumannii
Settings: combined with 25 μg/ml tetracycline

MIC value of the ginger compound in the medication, < 10 µM:
CCCCCC(=O)CC(=O)/C=C/c1ccc(O)c(OC)c1 [[6]-dehydrogingerdione]
CCCCC[C@H](O)CC(=O)CCc1ccc(O)c(OC)c1 [[6]-gingerol]
CCCCC/C=C/C(=O)CCc1ccc(O)c(OC)c1 [[6]-shogaol]
CCCCCCCCC[C@H](O)CC(=O)CCc1ccc(O)c(OC)c1 [[10]-gingerol]

Source: patent US8802737B2, “Method for improving tetracycline-resistance of Acinetobacter baumannii” (priority 2011, dated 2014)
